Drawing on paper doi:10.1101/2020.12.24.423824 (bioRxiv, 2020), this text covers binding for one substance.

Results are given in words; binding and its absence hold for the method and conditions named. In cells and extracts the contact can be indirect. A result given as binding can be weak or reduced; the word gives no strength.

In this assay the target is T1, CLN3 (UniProt Q13286).
T1 sequence: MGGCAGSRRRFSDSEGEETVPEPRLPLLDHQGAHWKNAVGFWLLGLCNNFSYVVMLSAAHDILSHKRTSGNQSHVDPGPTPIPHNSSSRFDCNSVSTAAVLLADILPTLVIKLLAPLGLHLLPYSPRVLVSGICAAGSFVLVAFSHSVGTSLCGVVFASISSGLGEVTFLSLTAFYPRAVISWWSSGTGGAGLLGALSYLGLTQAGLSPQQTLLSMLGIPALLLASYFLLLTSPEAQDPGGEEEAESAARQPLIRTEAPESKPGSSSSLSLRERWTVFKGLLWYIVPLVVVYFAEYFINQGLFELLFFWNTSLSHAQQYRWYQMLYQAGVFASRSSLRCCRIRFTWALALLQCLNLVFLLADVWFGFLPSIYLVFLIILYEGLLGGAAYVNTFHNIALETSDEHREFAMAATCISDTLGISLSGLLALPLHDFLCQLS
In words: co-IP.

Turning to CLN5^Y392X, the binding entry is given as “binds”.
